Test results reported in patent publication US20260000642A1 (Tay Therapeutics Limited, priority 2022, published 2026).

System: rat anti-collagen IgG1 antibodies
Assay: CIA model: rat anti-collagen IgG1 antibodies in serum at day 21
Type: in vivo, Lewis rat
Settings: day 21 serum
[1] = reference group (Dexamethasone or GSK620), fold 2000, individual animals
[2] = 3 mg/kg, fold 1000, individual animals, 3 mg/kg
[3] = 10 mg/kg, fold 1000, individual animals, 10 mg/kg
[4] = 30 mg/kg, fold 1000, individual animals, 30 mg/kg

SMILES	Average OD450 nm [1]	Calculated O.D. [1]	OD450 nm (first reading) [1]	OD450 nm (second reading) [1]	Average OD450 nm [2]	Calculated O.D. [2]	OD450 nm (first reading) [2]	OD450 nm (second reading) [2]	Average OD450 nm [3]	Calculated O.D. [3]	OD450 nm (first reading) [3]	OD450 nm (second reading) [3]	Average OD450 nm [4]	Calculated O.D. [4]	OD450 nm (first reading) [4]	OD450 nm (second reading) [4]
CNC(=O)c1cc(C(=O)NC2CC2)cn(Cc2ccccc2)c1=O [GSK620]	0.1059 and 0.1162 and 0.0510 and 0.0591 and 0.1383 and 0.0674 and 0.1068 and 0.1190	0.0014 and 0.0094	0.1048 and 0.1158 and 0.0510 and 0.0597 and 0.1344 and 0.0652 and 0.1051 and 0.1186	0.1070 and 0.1165 and 0.0510 and 0.0584 and 0.1422 and 0.0696 and 0.1085 and 0.1193	–	–	–	–	–	–	–	–	–	–	–	–
CNC(=O)c1[nH]c(C(=O)NC2CCC2)cc1O[C@@H](C)c1ccccc1 [Example 101, N^5-cyclobutyl-N^2-methyl-3-(1-phenylethoxy)-1H-pyrrole-2,5-dicarboxamide]	–	–	–	–	0.1350 and 0.1190 and 0.0577 and 0.2351 and 0.1310 and 0.0800 and 0.0703 and 0.2312	0.0080	0.1334 and 0.1187 and 0.0532 and 0.2278 and 0.1281 and 0.0789 and 0.0717 and 0.2381	0.1366 and 0.1192 and 0.0621 and 0.2424 and 0.1339 and 0.0811 and 0.0689 and 0.2243	0.4734 and 0.1603 and 0.2159 and 0.0570 and 0.1860 and 0.0967 and 0.0602 and 0.0572	0.0073 and 0.0075	0.4650 and 0.1629 and 0.2259 and 0.0591 and 0.1978 and 0.0995 and 0.0617 and 0.0588	0.4817 and 0.1576 and 0.2059 and 0.0548 and 0.1741 and 0.0939 and 0.0586 and 0.0555	0.0524 and 0.0503 and 0.0477 and 0.0657 and 0.1029 and 0.0732 and 0.0570 and 0.0752	0.0027 and 0.0006 and −0.0020 and 0.0074	0.0504 and 0.0486 and 0.0474 and 0.0630 and 0.1069 and 0.0770 and 0.0563 and 0.0734	0.0543 and 0.0519 and 0.0479 and 0.0684 and 0.0989 and 0.0693 and 0.0577 and 0.0769

Where “and” joins values, the source holds several entries; their conditions need not be identical. Equal entries are not always repeated.
